Assay results

The results are deposited in PubChem (AID912; NCATS, 2007).

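A cell-based FRET test of anthrax lethal toxin entry, tracked through the 460 nm emission signal; the cell line is not named here. Each compound was tested as a concentration series from about 0.0005 to 40 µM. The number is the fitted AC50 of the 460 nm signal alone; lower values mean a more potent effect. A falling signal goes with compounds filed as inhibitors or cytotoxic, a rising one with activators or fluorescent compounds (inferred from the filed classes).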

Values are in µM. Common to all entries: measured here: 460 nm channel. This is a side read-out of the assay, for part of the compounds, not drawn at random. Potencies fitted to partial, single-point or poorly fitting curves are rough. The first word of each remark tells which way the curve ran; it can be opposite to the aim of the assay.

| # | SMILES | AC50 (µM) | curve |
|---|---|---|---|
| 1 | `CC12C=C(/C=C/c3ccc(C(F)(F)F)cc3)C(C)(C1)C(c1ccc(C(F)(F)F)cc1)CC2=O` (stereo not shown) | 3.981 | rising, single point |
| 2 | `Cc1ccc(CNC(=O)c2sccc2-n2cccc2)cc1` | 0.1259 | falling, single point |
| 3 | `C=C(C)COc1ccc(-c2[nH]ncc2Oc2ccccc2OC)c(O)c1` | 6.31 | falling, partial curve |
| 4 | `Cc1c(NC(=O)CCC(=O)N2CCCCC2)c(=O)n(-c2ccccc2)n1C` | 31.62 | falling, single point |
| 5 | `Cc1cc(NCCN2CCOCC2)n2nc(C)c(-c3ccc(Cl)cc3)c2n1` | 6.31 | falling, partial curve |
| 6 | `O=C(NCc1nnc2n1CCCCC2)c1ccc(Cl)cc1Cl` | 3.162 | rising, single point |
| 7 | `Nc1ccc2nc(-c3ccc(Cl)cc3)[nH]c2c1` | 12.59 | falling, partial curve |
| 8 | `Clc1ccccc1C(Nc1ncccn1)Nc1ncccn1` | 1 | falling, single point |
| 9 | `Cc1cc(OCc2nn[nH]n2)c2c3c(c(=O)oc2c1)CCCC3` | 3.162 | rising, single point |
| 10 | `CS(=O)(=O)NCc1ccc(C(=O)NCc2ccccc2)cc1` | 0.1 | falling, full curve |
| 11 | `Cc1c(C(=O)NCc2cccnc2)sc2nc(-c3ccc(F)cc3)cn12` | 31.62 | falling, single point |
| 12 | `Cc1c(Nc2nc3ccccc3nc2N2CCN(c3ccccc3)CC2)c(=O)n(-c2ccccc2)n1C` | 5.012 | rising, single point |
| 13 | `COc1ccc(CCNc2oc(COc3ccccc3Cl)nc2C#N)cc1OC` | 19.95 | falling, single point |
| 14 | `CCCC(CCC)C(=O)Nc1ccncc1` | 1.585 | falling, single point |
| 15 | `COc1ccc(Oc2ncc3nc(-c4ccc(OC)cc4)c(=O)n(Cc4cccs4)c3n2)cc1` | 12.59 | rising, partial curve |
| 16 | `CC(=O)N1CCC[C@@]2(CCN(c3ncccn3)C2)C1` | 10 | rising, partial curve |
| 17 | `CC(=O)N(c1ccccc1)c1c(F)c(F)c(F)c(F)c1F` | 0.007943 | falling, full curve |
| 18 | `CCOc1cc(C2NC(=O)N(C)C(C)=C2C(=O)OC)cc(Br)c1O` (stereo not shown) | 10 | rising, single point |
| 19 | `COc1ccc(N(C(=O)Nc2ccc(Cl)cc2)C2=NCCC2)cc1` | 5.012 | rising, single point |
| 20 | `CN1CCc2[nH]nc(-c3n[nH]c4c3CN(C)CC4)c2C1` | 0.7943 | falling, single point |
| 21 | `CSc1nsc(SC)c1NC(=O)OCC1CCCO1` (stereo not shown) | 5.012 | rising, single point |
| 22 | `Cc1ncoc1C(=O)Nc1cccc(Cl)c1` | 31.62 | rising, single point |
| 23 | `N#CCCn1c(=O)c(CCc2ccccc2)nc2cnc(N3CCOCC3)nc21` | 19.95 | rising, single point |
| 24 | `CNC[C@H](O)c1ccc(OC(=O)C(C)(C)C)c(OC(=O)C(C)(C)C)c1` | 3.981 | rising, full curve, poor fit |
| 25 | `Cn1c(=O)c(-c2ccc(F)cc2)nc2cnc(OCc3ccccc3)nc21` | 19.95 | rising, single point |
| 26 | `Cc1ccc(-n2ccnc2SCC(=O)N(CC(C)C)C2CCS(=O)(=O)C2)c(C)c1` (stereo not shown) | 3.981 | rising, partial curve, poor fit |
| 27 | `NC(=O)C[C@@H]1N[C@]2(C(=O)Nc3ccccc32)[C@@H]2C(=O)N(C3CCCCC3)C(=O)[C@H]12` | 0.003981 | falling, full curve |
| 28 | `CCOC(=O)c1sc(NC(=O)CSc2nnnn2-c2ccccc2)c(C(=O)OCC)c1C` | 0.005012 | falling, full curve |
| 29 | `COc1ccc(C(C(O)C(=O)c2c[nH]c3ccccc23)N2CCN(c3ccccc3)CC2)cc1` (stereo not shown) | 31.62 | falling, single point |
| 30 | `O=C(Nc1cccc(Cl)c1)N1CCN(C/C=C/c2ccccc2)CC1` | 12.59 | falling, single point |
| 31 | `Cc1ccc2c(c1)NC(=O)C(CC(=O)NCCCN1CCN(c3cc(C)ccc3C)CC1)O2` (stereo not shown) | 19.95 | falling, single point |
| 32 | `CN(Cc1ccccc1)Cc1nc2c([nH]1)c(=O)[nH]c(=O)n2C` | 0.2512 | falling, partial curve |
| 33 | `O=C(NCCN1CCOCC1)c1csc2c1CCCCC2` | 0.3162 | falling, full curve, poor fit |
| 34 | `O=C(Cc1cccs1)N1CCN(c2nc(-c3ccc(Cl)cc3)cs2)CC1` | 7.943 | falling, partial curve |
| 35 | `CCN(CCNC(=O)Nc1ccc(Cl)cc1)c1ccccc1` | 19.95 | falling, partial curve, poor fit |
| 36 | `O=C(NCC1CCCO1)C1CCN(C(=O)c2ccc(Br)cc2)CC1` (stereo not shown) | 10 | rising, single point |
| 37 | `CCCS(=O)(=O)N1CCCC(C(=O)NCCN2CCOCC2)C1` (stereo not shown) | 5.012 | rising, single point |
| 38 | `COc1ccc(NC(=O)c2oc3ccc(S(=O)(=O)N4CCC5(CC4)OCCO5)cc3c2C)cc1` | 10 | falling, partial curve, poor fit |
| 39 | `COc1nc(NC(C)(C)C)nc(Oc2ccc(=O)n(-c3ccccc3)n2)n1` | 0.3162 | falling, full curve |
| 40 | `CCC(=O)Nc1cccc(NC(=O)c2ccc3c(c2)OCCO3)c1` | 5.012 | rising, partial curve |
| 41 | `N#Cc1ccc(CN2CC[C@@]3(CCCN(C(=O)c4ccco4)C3)C2)cc1` | 6.31 | rising, partial curve |
| 42 | `CCN(CC)C(=O)C(C)N(C#N)c1nc(NC(C)C)nc(NC(C)C)n1` (stereo not shown) | 1.995 | rising, single point |
| 43 | `N#CSCSC#N` | 7.943 | falling, full curve |
| 44 | `O=C1CCc2cc(OCCCCc3nnnn3C3CCCCC3)ccc2N1` | 12.59 | rising, partial curve |
| 45 | `Cn1cnnc1SCC(=O)Nc1sc2c(c1C(N)=O)CCC2` | 31.62 | rising, single point |
| 46 | `CCCCOC(=O)Cn1c(=O)c2c(nc3n2CCCCN3c2ccc(C)cc2)n(C)c1=O` | 0.0631 | rising, full curve, poor fit |
| 47 | `COCCNc1ncnc2ccc(-c3cccnc3)cc12` | 5.012 | falling, single point |
| 48 | `CN1CCN(CC(=O)N2CCn3c4c(c5cc(C6CCCCC6)ccc53)CCCC42)CC1` (stereo not shown) | 2.512 | falling, full curve, poor fit |
| 49 | `COc1ccc(-c2nc3cnc(N4CCNCC4)nc3n(CCc3ccccc3)c2=O)cc1` | 2.512 | rising, full curve |
| 50 | `O=C(Nc1cccc(Br)c1)c1cc2ccccc2o1` | 5.012 | falling, partial curve |
| 51 | `c1ccc2c(c1)CCN2CCN1CCc2ccccc21` | 15.85 | falling, single point |
| 52 | `Nc1ccccc1NC(=O)c1ccccc1N` | 31.62 | rising, single point |
| 53 | `COc1ccc(Oc2ncc3nc(-c4ccc(OC)cc4)c(=O)n(C4CC4)c3n2)cc1` | 12.59 | rising, partial curve |
| 54 | `O=C(c1cc(C(F)(F)F)cc(C(F)(F)F)c1)N1CCC2(CCCN(Cc3nccs3)C2)CC1` | 0.631 | falling, full curve |
| 55 | `CN(C)c1ccc(-c2nc(NCc3cccnc3)c3ccccc3n2)cc1` | 31.62 | falling, single point |
| 56 | `COc1ccc(-n2nnnc2SCC(=O)c2ccc(O)c(O)c2)cc1` | 12.59 | falling, partial curve |
| 57 | `CC(C)c1ccc2oc(-c3cc(N)ccc3O)nc2c1` | 25.12 | falling, single point |
| 58 | `O=C(c1ccco1)N(CCCN1CCOCC1)c1nc(-c2ccc(Cl)cc2)cs1` | 19.95 | falling, single point |
| 59 | `CN(C)C(=O)c1ccc(-c2ccc3ncnc(Nc4ccc(F)cc4)c3c2)cc1` | 19.95 | falling, single point |
| 60 | `CCOc1ccccc1N1CCN(C(=O)c2cccc(-c3ccc(O)cc3)c2)CC1` | 31.62 | falling, single point |
| 61 | `CCN(CC)S(=O)(=O)c1ccc2oc(SCc3ccc(F)cc3)nc2c1` | 7.943 | falling, partial curve |

Repeated from the top, 5 entries:

CC12C=C(/C=C/c3ccc(C(F)(F)F)cc3)C(C)(C1)C(c1ccc(C(F)(F)F)cc1)CC2=O (stereo not shown) gave AC50 3.981 µM (rising, single point).
Cc1ccc(CNC(=O)c2sccc2-n2cccc2)cc1 gave AC50 0.1259 µM (falling, single point).
C=C(C)COc1ccc(-c2[nH]ncc2Oc2ccccc2OC)c(O)c1 gave AC50 6.31 µM (falling, partial curve).
Cc1c(NC(=O)CCC(=O)N2CCCCC2)c(=O)n(-c2ccccc2)n1C gave AC50 31.62 µM (falling, single point).
Cc1cc(NCCN2CCOCC2)n2nc(C)c(-c3ccc(Cl)cc3)c2n1 gave AC50 6.31 µM (falling, partial curve).